Each structure is given as a SMILES string. In all, about 1,600 compounds went through this assay and about 20 (1%) showed an effect of 50% or more. Some of the results follow.

This test relates to T1, E. coli pLC1021 (luc-trpAt trans-translation reporter).
T1 construct: pLC1021 luc-trpAt reporter strain
Details: species or system Escherichia coli pLC1021; luc-trpAt non-stop luciferase reporter; luminescence rises when trans-translation is inhibited; normalized to KKL-35 and DMSO. As to conditions: reporter signal, KKL-35 = 100%; rise means trans-translation inhibition; 2 h, 20 µM. An outline of the steps:
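Cells carrying the non-stop luc-trpAt reporter were exposed to 20 µM compound for 2 h at room temperature, then Bright-Glo was added and luminescence read at 560 nm after 10 min. Signals were normalised per plate to DMSO and 20 µM KKL-35 wells. Hits: activity one SD above the median; ≥2 biological repeats averaged.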
Take `C=CCNc1nc(SC)nc2ccccc12` [KKL-1744]: the “% activation” value is 5%.

Turning to `CCCCCCCCn1c2c(c(=N)c3ccccc31)CCC2` [KKL-1637], the “% activation” value turned out to be 1%.

Consider `CCC(OC(C)=O)c1ccc(OC(C)=O)c(OC)c1` (stereo not drawn) [KKL-0758], for which the “% activation” value is on record as 7%.

As to `N#Cc1ccc(NC(=O)CSc2ccc(Cl)cc2)cc1` [KKL-1571], the “% activation” value was 0%.

Regarding `CC(C)Oc1cccc(C(=O)C2CCCN(C3CSCCSC3)C2)c1` (stereo not drawn) [KKL-0676], the “% activation” value is 0%.

Turning to `Cc1ccc(CNCc2c(C(=O)N3CCCCCCC3)nc3ccc(Cl)cn23)o1` [KKL-0521], the “% activation” value is recorded as 2%.

On to `c1ccc(-c2ncc(-c3ccc(OCCCn4ccnc4)cc3)s2)cc1` [KKL-1776], for which the “% activation” value is 0%.

As for `COc1ccc2c(c1)NC1(COC3(CCN(Cc4cccc(F)c4)CC3)C1)c1cccn1-2` (stereo not drawn) [KKL-1223], the “% activation” value is listed as 0%.

On to `Cc1cc(C)cc(CC(C)Cc2nc3ccccc3[nH]2)c1` (stereo not drawn) [KKL-0535], for which the “% activation” value came to 1%.

For the compound `Cc1ccc(Nc2c(-c3ccccn3)nc3ccc(C)cn23)cc1` [KKL-1199], the “% activation” value worked out at 4%.

For the compound `CCCCCOc1ccc(C(=O)NCC(=O)NCC(=O)OCC)cc1` [KKL-0985], the “% activation” value came to 7%.

`OC1(c2ccccc2)Oc2ccccc2N=C1c1ccccc1` (stereo not drawn) [KKL-1870]: the “% activation” value worked out at 2%.

As for `CN1CCN(c2ccc(C(F)(F)F)cc2NC(=O)c2ccccn2)CC1` [KKL-1836], the “% activation” value came out at 7%.

Turning to `CCCCC(=O)NC(=S)Nc1ccc(N2CCN(C(=O)c3ccco3)CC2)c(Cl)c1` [KKL-0965], the “% activation” value was found to be 8%.

Take `CC1(C)Cc2c(cnn2-c2cccc(F)c2)C(NC(=O)c2ccc3c(c2)no[n+]3[O-])C1` (stereo not drawn) [KKL-0636]: the “% activation” value amounted to 5%.

`Cc1nn(Cc2ccccc2)c(Cl)c1C(=O)NC1CCCCCC1` [KKL-1834]: the “% activation” value worked out at 1%.

Regarding `N#Cc1ccc2c(c1)CCN(CCCSc1ccnc3cc(C(F)(F)F)ccc13)CC2` [KKL-1819], the “% activation” value is listed as 0%.

In the case of `Cc1ccc(CN(CCCn2ccnc2)Cc2ccc(N3CCCC3)c(F)c2)o1` [KKL-1039], the “% activation” value was 0%.

Turning to `Cc1ccc(NC(=O)c2ccc([N+](=O)[O-])o2)cc1C` [KKL-1616], the “% activation” value was found to be 4%.

Take `CCOC(=O)CCc1c(C)c(C#N)c2nc3ccccc3n2c1Cl` [KKL-1216]: the “% activation” value came out at 0%.

As for `Cc1c(C(=O)NCC(c2ccc3c(c2)OCO3)N(C)C)oc2c(C)cccc12` (stereo not drawn) [KKL-1031], the “% activation” value was determined as 0%.

On to `COC(=O)COc1ccc(-c2ccc(F)cc2)cc1C=O` [KKL-1608], for which the “% activation” value came out at 0%.

As to `COCC1CCCN(c2nncc(-c3ccc(C4CCCCC4)cc3)n2)C1` (stereo not drawn) [KKL-1119], the “% activation” value amounted to 0%.

Consider `CCN(CC)S(=O)(=O)c1ccc(Cl)c(C(=O)Oc2cccc3cccnc23)c1` [KKL-1481], for which the “% activation” value amounted to 4%.

Take `C#CCSc1nnc(-c2ccc([N+](=O)[O-])cc2)o1` [KKL-0433]: the “% activation” value is listed as 8%.

For the compound `CSc1ccc(C(=O)Nc2nc(-c3ccccn3)cs2)cc1` [KKL-1745], the “% activation” value is 5%.

In the case of `COc1ccc(-c2ncc(CN3CCCC(C(=O)c4ccc(Cl)cc4)C3)cn2)cc1` (stereo not drawn) [KKL-1163], the “% activation” value worked out at 0%.

For the compound `Cc1cc(C)c(C2C3=C(O)c4ccccc4C3=Nc3c2c(C)nn3-c2ccccn2)c(C)c1` (stereo not drawn) [KKL-0840], the “% activation” value turned out to be 0%.

`COC(=O)[C@@H]1Cc2c([nH]c3ccccc23)[C@H]2C[C@H](NCCNC(C)=O)C[C@@H](c3ccc(OC(F)(F)F)cc3)N21` [KKL-0306]: the “% activation” value is 20%.

As to `COc1ccc(-c2ncc(CN3CCCC(C(=O)c4ccccc4SC)C3)cn2)cc1` (stereo not drawn) [KKL-0316], the “% activation” value was 0%.

For the compound `CCN1/C(=C/c2sc3ccccc3[n+]2C)C=Cc2cccc(C)c21` [KKL-1643], the “% activation” value is 0%.

For `Cc1ccc(-n2c(=O)oc3ccc(Cl)cc3c2=O)cc1Cl` [KKL-0729], the “% activation” value is on record as 0%.

For the compound `Cn1cc(C(=O)CCl)c2ccccc21` [KKL-1621], the “% activation” value was 1%.

For the compound `CCC(=O)Oc1cccc2ccc(/C=C/c3ccccc3F)nc12` [KKL-1463], the “% activation” value amounted to 14%.

On to `O=C1c2cccc3cccc(c23)C(=O)N1CCN1CCN(CC(O)COc2ccccc2Cl)CC1` (stereo not drawn) [KKL-0725], for which the “% activation” value was 6%.

Regarding `O=C(Oc1ccc(Cl)cc1)c1ccc(COC(=O)c2cnccn2)cc1` [KKL-1070], the “% activation” value was found to be 3%.

For `COc1cccc(-c2nn(-c3ccccc3)cc2CNCc2ccc(-n3cncn3)cc2)c1` [KKL-0653], the “% activation” value was found to be 2%.

On to `CCOC(=O)CSCC(=O)Nc1c(C(=O)C2CC2)oc2ccccc12` [KKL-1061], for which the “% activation” value stood at 5%.

As to `COc1ccc2[nH]c(CN3CCC4(CC3)NC(=O)c3ccccc3O4)c(C)c2c1` [KKL-0473], the “% activation” value came out at 9%.

For the compound `COc1ccc2cc(C(=O)C3CCCN(Cc4ccc(C#CC(C)(C)O)cc4)C3)ccc2c1` (stereo not drawn) [KKL-1121], the “% activation” value was determined as 10%.

For `COc1ccc(C(=O)NC(=S)Nc2ccc(N3CCCCC3)cc2)cc1OC` [KKL-1472], the “% activation” value stood at 0%.

Regarding `CC1Cc2cc(CNCc3cn(C)c4cc(F)ccc34)ccc2O1` (stereo not drawn) [KKL-1034], the “% activation” value worked out at 0%.

Consider `c1ccc(-c2nc(NC3CCCCC3)cc(C3CC3)n2)nc1` [KKL-1677], for which the “% activation” value is recorded as 11%.

Regarding `O=C(COc1cccc(F)c1)Nc1nc(-c2ccccn2)cs1` [KKL-1787], the “% activation” value is on record as 5%.

Regarding `CCC(C)NC(=O)c1ccc(NC(=O)C2(c3ccccc3)CCCC2)cc1` (stereo not drawn) [KKL-0427], the “% activation” value came to 0%.

On to `COc1ccc(F)c(-c2nc(CN3CCC4(C=Cc5ccccc54)CC3)c(C)o2)c1` [KKL-0476], for which the “% activation” value came to 6%.

In the case of `CSc1nccc(N2CCCC(CCC(=O)NCc3ccc(F)c(F)c3)C2)n1` (stereo not drawn) [KKL-0346], the “% activation” value was 0%.

For `Cc1ccc2c(c1)cc(C(=O)N1CCCC(c3cc4[nH]cccc-4n3)C1)n2C` (stereo not drawn) [KKL-0533], the “% activation” value was 0%.

On to `COC(=O)[C@@H]1Cc2c([nH]c3ccccc23)[C@H]2C[C@H](NCCNC(C)=O)C[C@@H](c3ccc(C(C)C)cc3)N21` [KKL-1606], for which the “% activation” value is listed as 0%.

On to `Cc1nc2ccccc2n1N=Cc1ccc([N+](=O)[O-])s1` [KKL-1026], for which the “% activation” value is 0%.

In the case of `CCOC(=O)COc1ccc(S(=O)(=O)Nc2ccc(C)c(C)c2)cc1` [KKL-1407], the “% activation” value is given as 0%.

`CN1Cc2c(N3CCOCC3)nc3sc(C(=O)c4ccc(Br)cc4)c(N)c3c2CC1(C)C` [KKL-0984]: the “% activation” value is reported as 0%.

As to `CSc1ccc(C(CC(=O)c2ccccc2)Nc2ccc(F)cc2)cc1` (stereo not drawn) [KKL-1455], the “% activation” value is recorded as 3%.

As to `Cc1cc(NC(=O)c2ccc([N+](=O)[O-])o2)c(C)cc1I` [KKL-1342], the “% activation” value is recorded as 0%.

As for `Cc1ccc(-n2cc(CNCCCn3ccnc3)c(-c3cccc(C)c3)n2)cc1` [KKL-0662], the “% activation” value is recorded as 0%.

On to `COc1cc([N+](=O)[O-])ccc1N=C(S)Nc1ccc(F)c(Cl)c1` [KKL-1536], for which the “% activation” value worked out at 0%.

Consider `Cc1ccc2[nH]c(/C(C#N)=C\c3c[nH]c4ccc(Br)cc34)nc2c1` [KKL-0579], for which the “% activation” value is 0%.

Turning to `COc1ccc(CCNc2cc(C)nc3c(-c4ccccc4)c(C)nn23)cc1OC` [KKL-0871], the “% activation” value stood at 0%.

As for `Cc1nc2ccccn2c1C(=O)NCc1cccs1` [KKL-1801], the “% activation” value was found to be 0%.

In the case of `COc1cccc(N2CCN(CC(=O)Nc3cc(Cl)ccc3Cl)CC2)c1` [KKL-1245], the “% activation” value is 0%.

As for `Cc1ccc(/C=C/C(=O)C2C(=O)c3ccccc3C2=O)cc1` [KKL-0982], the “% activation” value was 0%.

As to `Cc1nn2c(O)cc(C(C)(C)C)nc2c1-c1ccccc1` [KKL-0891], the “% activation” value was 17%.

Turning to `CCOc1ccc2c(c1)cc(C(=O)N1CCCC(c3cc4[nH]cccc-4n3)C1)n2C` (stereo not drawn) [KKL-1219], the “% activation” value stood at 0%.

Consider `CC1CCc2sc3ncnc(NCCc4ccccc4)c3c2C1` (stereo not drawn) [KKL-0868], for which the “% activation” value amounted to 2%.

In the case of `O=C(NCCc1ccc(F)cc1)NC12CC3CC(CC(C3)C1)C2` [KKL-1075], the “% activation” value is given as 0%.

Regarding `CC(NC(=O)C1(c2ccc(Cl)cc2)CCC1)c1n[nH]c(-c2cccnc2)n1` (stereo not drawn) [KKL-1243], the “% activation” value is listed as 8%.

As to `COC(=O)COc1ccc(-c2ccccc2)cc1` [KKL-1283], the “% activation” value stood at 4%.

For `CCOC(=O)COc1ccc(C(=O)Nc2ccc(F)cc2)cc1` [KKL-0783], the “% activation” value is 0%.

For the compound `Brc1c(-c2ccc3c(c2)OCO3)nc2ncccn12` [KKL-1672], the “% activation” value is listed as 2%.

On to `CC(C)(C)c1ccc(-c2nnc(SCC(=O)OC3CCCCC3)o2)cc1` [KKL-1671], for which the “% activation” value is 0%.

As to `CN(Cc1ccc(Cl)cc1)C(=O)CCc1nc2ccccc2oc1=O` [KKL-1749], the “% activation” value is on record as 0%.

For the compound `CC12CCC(C(=O)Nc3ccc(OC(F)(F)F)cc3)(CC1=O)C2(C)C` (stereo not drawn) [KKL-0569], the “% activation” value was found to be 11%.

For the compound `CC(=NNC1=NC(=O)C(Cc2ccc(Cl)cc2)S1)c1ccc(F)cc1` (stereo not drawn) [KKL-1358], the “% activation” value turned out to be 16%.

With `CCOC(=O)COc1ccc2c(=O)c(-c3ccc(OC)c(OC)c3)c(C(=O)OCC)oc2c1` [KKL-0958], the “% activation” value is given as 16%.

Consider `COc1ccccc1CC(C)NC(=O)c1cnc(SC)nc1` (stereo not drawn) [KKL-0703], for which the “% activation” value is listed as 0%.

Turning to `COc1ccc(CNCc2cn(-c3cccc(F)c3)nc2-c2ccc(C)o2)cc1` [KKL-0321], the “% activation” value is on record as 0%.

For `CSc1nc(-c2ccccc2)nc(C(Cl)Cl)n1` [KKL-1660], the “% activation” value is recorded as 4%.

For the compound `COc1ccc2sc(Nc3nc(-c4ccccn4)cs3)nc2c1` [KKL-1681], the “% activation” value was 0%.

`Cc1cc2cc(CN(Cc3cccnc3)C(=O)Nc3ccc(F)cc3)c(O)nc2cc1C` [KKL-1347]: the “% activation” value was 0%.

For the compound `COC(=O)[C@@H]1Cc2c([nH]c3ccccc23)[C@H]2C[C@@H](NCCN(C)C)C[C@@H](c3ccc(C(C)C)cc3)N21` [KKL-0551], the “% activation” value is recorded as 0%.

For the compound `CSc1ncc(C(=O)Nc2nc(-c3c[nH]c4cc(C)ccc34)cs2)cn1` [KKL-0474], the “% activation” value was found to be 0%.

With `CCCCOC(=O)CSc1nc(N)c(C#N)c(-c2ccc(OC)cc2)c1C#N` [KKL-0380], the “% activation” value is reported as 3%.

Regarding `COc1ccc(NC(=O)Cn2nnc(-c3ccc(OCC(C)C)cc3)n2)c(OC)c1` [KKL-1208], the “% activation” value stood at 5%.

With `O=C(Oc1cccc2cccnc12)C(Cc1ccccc1)N1C(=O)C2C3CCC(C3)C2C1=O` (stereo not drawn) [KKL-1364], the “% activation” value came out at 9%.

(Values after article PMC12548414.)
